Data taken from article PMC7228087.
These are yes or no findings as the source states them, for the method shown. Binding seen in cells or lysates may run through a third protein. Some entries that bind do so weakly or less than the wild type. Sequences can lack the tags named with a protein.

The chains behind the UniProt entries cited, without tags or fusion partners. Where a name states a change or a piece, a line headed by the entry shows the natural chain unless it says otherwise.
UniProt P61829, whole entry: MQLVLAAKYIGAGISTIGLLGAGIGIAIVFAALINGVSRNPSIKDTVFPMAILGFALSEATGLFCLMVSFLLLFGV

Biological target: T1, Cox6 with a tandem hemagglutinin plus protein C tag (S. cerevisiae) (UniProt P00427)
T1 sequence: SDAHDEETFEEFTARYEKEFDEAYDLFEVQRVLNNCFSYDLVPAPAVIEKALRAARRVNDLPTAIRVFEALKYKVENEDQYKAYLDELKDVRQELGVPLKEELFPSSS
Assay: co-IP; Cox6-HAC held on protein C antibody beads; 2% digitonin extracts of mitochondria labelled with 35S-methionine/cysteine; eluted with EDTA; SDS-PAGE and BN-PAGE, autoradiography; strains with Cox6-HAC without or with mss51, mss51 pet494 or cox5a null mutations, cells grown with or without 2 mg/ml chloramphenicol, pulse and chase

Substance	binding
Cox1 (from UniProt P00401 1-534)	binds
Atp9 (from UniProt P61829 1-76)	binds
